{"source": "PubChem BioAssay AID1259405 | NCATS, 2018", "screen": "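Knock-downs that lift recombinant protein yield in hamster ovary cells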 (primary screen)", "cells": "Chinese hamster CHO-K1 ovary cells with stable secreted eGFP expression", "knock-down reagent": "single siRNA against mouse genes, 0.8 pmol siRNA per well (2 µl of 400 nM stock)", "timing": "3 days", "detection": "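Per-well intracellular GFP measured by laser scanning cytometry, plus viability from ATP luminescence, each relative to plate median of non-targeting control wells, in %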", "scale": "GFP, % of control: higher = more GFP per well, higher productivity; viability (ATP), % of control: higher = more viable cells (more ATP)", "call rule": "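a knock-down is called active if GFP reaches 120% or more of non-targeting control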", "note": "This is an unselected part of about 50,000 reagents tested. Over the whole deposit, about 4,000 (8%) were called active. 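Mouse siRNA library applied to hamster cells; one well for each siRNA.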 No sequences are given here."}
The opening 2 records, ahead of the listing:
{"target gene": "Acvr1b (activin A receptor, type 1B)", "PubChem SID": "SID363570929", "GFP, % of control": 104, "viability (ATP), % of control": 87.4, "outcome": "inactive"}
{"target gene": "Btg2 (BTG anti-proliferation factor 2)", "PubChem SID": "SID363547058", "GFP, % of control": 51.3, "viability (ATP), % of control": 54.9, "outcome": "inactive"}

The list itself, from the first entry:
{"target gene": "Acvr1b (activin A receptor, type 1B)", "PubChem SID": "SID363570929", "GFP, % of control": 104, "viability (ATP), % of control": 87.4, "outcome": "inactive"}
{"target gene": "Btg2 (BTG anti-proliferation factor 2)", "PubChem SID": "SID363547058", "GFP, % of control": 51.3, "viability (ATP), % of control": 54.9, "outcome": "inactive"}
{"target gene": "Btg2 (BTG anti-proliferation factor 2)", "PubChem SID": "SID363549870", "GFP, % of control": 79.1, "viability (ATP), % of control": 87.9, "outcome": "inactive"}
{"target gene": "Btg2 (BTG anti-proliferation factor 2)", "PubChem SID": "SID363587924", "GFP, % of control": 146, "viability (ATP), % of control": 132, "outcome": "active"}
{"target gene": "Trim15 (tripartite motif-containing 15)", "PubChem SID": "SID363572679", "GFP, % of control": 54.6, "viability (ATP), % of control": 74.3, "outcome": "inactive"}
{"target gene": "Trim15 (tripartite motif-containing 15)", "PubChem SID": "SID363577959", "GFP, % of control": 75.6, "viability (ATP), % of control": 69.9, "outcome": "inactive"}
{"target gene": "Trim15 (tripartite motif-containing 15)", "PubChem SID": "SID363582183", "GFP, % of control": 119, "viability (ATP), % of control": 123, "outcome": "inactive"}
{"target gene": "Dcbld2 (discoidin, CUB and LCCL domain containing 2)", "PubChem SID": "SID363539616", "GFP, % of control": 81.8, "viability (ATP), % of control": 77, "outcome": "inactive"}
{"target gene": "Dcbld2 (discoidin, CUB and LCCL domain containing 2)", "PubChem SID": "SID363560917", "GFP, % of control": 89.8, "viability (ATP), % of control": 65.7, "outcome": "inactive"}
{"target gene": "Dcbld2 (discoidin, CUB and LCCL domain containing 2)", "PubChem SID": "SID363565007", "GFP, % of control": 136, "viability (ATP), % of control": 51.8, "outcome": "active"}
{"target gene": "4930544M13Rik (RIKEN cDNA 4930544M13 gene)", "PubChem SID": "SID363542389", "GFP, % of control": 45.1, "viability (ATP), % of control": 54, "outcome": "inactive"}
{"target gene": "4930544M13Rik (RIKEN cDNA 4930544M13 gene)", "PubChem SID": "SID363551880", "GFP, % of control": 85.1, "viability (ATP), % of control": 61.6, "outcome": "inactive"}
{"target gene": "4930544M13Rik (RIKEN cDNA 4930544M13 gene)", "PubChem SID": "SID363559485", "GFP, % of control": 96.5, "viability (ATP), % of control": 97.5, "outcome": "inactive"}
{"target gene": "Pdlim5 (PDZ and LIM domain 5)", "PubChem SID": "SID363541105", "GFP, % of control": 65.2, "viability (ATP), % of control": 65.9, "outcome": "inactive"}
{"target gene": "Pdlim5 (PDZ and LIM domain 5)", "PubChem SID": "SID363555732", "GFP, % of control": 66.4, "viability (ATP), % of control": 84.2, "outcome": "inactive"}
{"target gene": "Pdlim5 (PDZ and LIM domain 5)", "PubChem SID": "SID363566021", "GFP, % of control": 108, "viability (ATP), % of control": 62.4, "outcome": "inactive"}
